Reference: PMC5297248
No constants are given. Whether binding was seen depends on the method and setting. For part of these data: Binding seen in cells or lysates may run through a third protein. Some binding calls cover weakened binding; strength is not graded here.

Amino acid sequences for entries named in this document (tags omitted).
UniProt P35222: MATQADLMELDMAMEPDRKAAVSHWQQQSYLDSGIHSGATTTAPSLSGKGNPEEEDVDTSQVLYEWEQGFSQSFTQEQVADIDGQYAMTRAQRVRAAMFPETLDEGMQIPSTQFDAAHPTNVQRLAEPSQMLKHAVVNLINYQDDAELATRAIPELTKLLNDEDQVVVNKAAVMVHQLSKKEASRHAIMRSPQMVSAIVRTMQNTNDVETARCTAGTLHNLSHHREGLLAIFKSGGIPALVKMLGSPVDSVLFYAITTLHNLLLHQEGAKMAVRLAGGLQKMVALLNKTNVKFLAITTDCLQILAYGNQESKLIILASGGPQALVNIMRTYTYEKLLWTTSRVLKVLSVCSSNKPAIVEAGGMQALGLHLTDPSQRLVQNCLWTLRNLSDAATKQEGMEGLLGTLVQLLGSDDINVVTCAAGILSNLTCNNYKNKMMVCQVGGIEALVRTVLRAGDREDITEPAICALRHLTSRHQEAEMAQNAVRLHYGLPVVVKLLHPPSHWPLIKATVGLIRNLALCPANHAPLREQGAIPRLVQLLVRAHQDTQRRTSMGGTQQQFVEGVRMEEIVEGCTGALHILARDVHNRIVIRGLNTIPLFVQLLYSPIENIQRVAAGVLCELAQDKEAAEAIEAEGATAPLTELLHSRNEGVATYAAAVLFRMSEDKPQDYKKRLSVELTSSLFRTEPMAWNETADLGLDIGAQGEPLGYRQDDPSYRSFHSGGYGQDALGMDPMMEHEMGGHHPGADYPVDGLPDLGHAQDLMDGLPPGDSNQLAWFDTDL
UniProt P26038: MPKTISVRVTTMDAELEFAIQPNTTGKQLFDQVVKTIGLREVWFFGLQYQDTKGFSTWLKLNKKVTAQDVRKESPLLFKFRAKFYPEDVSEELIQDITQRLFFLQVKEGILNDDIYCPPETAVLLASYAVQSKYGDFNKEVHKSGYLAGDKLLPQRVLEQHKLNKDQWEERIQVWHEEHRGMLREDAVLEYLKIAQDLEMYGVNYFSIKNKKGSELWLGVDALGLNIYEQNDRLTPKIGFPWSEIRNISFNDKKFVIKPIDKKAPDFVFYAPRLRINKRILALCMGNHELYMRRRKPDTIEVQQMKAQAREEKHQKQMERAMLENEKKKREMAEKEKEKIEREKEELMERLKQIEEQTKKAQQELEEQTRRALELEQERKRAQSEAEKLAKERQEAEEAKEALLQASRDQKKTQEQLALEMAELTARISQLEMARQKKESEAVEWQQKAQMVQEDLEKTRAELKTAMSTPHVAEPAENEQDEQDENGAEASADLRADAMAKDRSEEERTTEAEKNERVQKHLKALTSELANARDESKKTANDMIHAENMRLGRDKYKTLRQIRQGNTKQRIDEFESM
UniProt P35241: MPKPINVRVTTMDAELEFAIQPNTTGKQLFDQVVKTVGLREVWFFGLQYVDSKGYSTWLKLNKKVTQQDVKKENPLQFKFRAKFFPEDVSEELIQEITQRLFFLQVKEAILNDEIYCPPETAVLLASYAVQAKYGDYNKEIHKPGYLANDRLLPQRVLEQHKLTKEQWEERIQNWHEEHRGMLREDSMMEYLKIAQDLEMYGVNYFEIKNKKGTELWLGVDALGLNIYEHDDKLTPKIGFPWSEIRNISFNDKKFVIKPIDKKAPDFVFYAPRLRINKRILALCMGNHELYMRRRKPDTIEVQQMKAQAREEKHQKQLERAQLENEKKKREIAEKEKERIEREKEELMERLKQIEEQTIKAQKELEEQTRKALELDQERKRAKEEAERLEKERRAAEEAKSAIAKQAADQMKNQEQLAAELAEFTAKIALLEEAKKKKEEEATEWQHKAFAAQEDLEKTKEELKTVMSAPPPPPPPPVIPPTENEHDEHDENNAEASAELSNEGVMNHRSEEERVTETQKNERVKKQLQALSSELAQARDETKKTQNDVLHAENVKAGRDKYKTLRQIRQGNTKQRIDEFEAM
UniProt P08758: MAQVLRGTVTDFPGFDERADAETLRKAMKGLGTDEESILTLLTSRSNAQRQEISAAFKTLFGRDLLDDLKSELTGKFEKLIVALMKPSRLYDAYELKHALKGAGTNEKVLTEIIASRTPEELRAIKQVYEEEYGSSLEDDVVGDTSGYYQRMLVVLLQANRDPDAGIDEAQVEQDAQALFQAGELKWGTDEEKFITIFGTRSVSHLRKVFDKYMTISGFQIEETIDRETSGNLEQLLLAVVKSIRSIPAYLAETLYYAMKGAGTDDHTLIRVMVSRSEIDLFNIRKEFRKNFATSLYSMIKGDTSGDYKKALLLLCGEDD

Assays:
[1] = target: β-Catenin (human (endogenous in primary trophoblasts)) (UniProt P35222); experiment: proximity ligation; Duolink PLA on permeabilized cytotrophoblasts with pairs of specific antibodies; red spots when proximity <40 nm; negative when either antibody was omitted or replaced by nonspecific IgG
[2] = target: β-Catenin (human (endogenous in primary trophoblasts)) (UniProt P35222); experiment: co-IP; lysates of cytotrophoblasts cultured 24 h (200 μg protein); antibodies to AnxA5, E-Cadherin, β-Catenin or α-Catenin covalently coupled (BS3) to protein G Dynabeads; immunoblot; control rabbit or mouse IgG
[3] = target: Moesin (human (endogenous in primary trophoblasts)) (UniProt P26038); experiment: far-Western, overlay or dot blot; plasma membrane fractions of cytotrophoblasts or syncytiotrophoblasts resolved by SDS-PAGE and blotted to nitrocellulose; overlaid 16 h at 4 °C with 0.5 μM AnxA5-CF770 alone or with an excess of unlabelled AnxA5 (1 μM); bands that were competed were identified by nanoLC-LTQ Orbitrap mass spectrometry of tryptic digests (Mascot score >30); only the binder purified
[4] = target: Radixin (human (endogenous in primary trophoblasts)) (UniProt P35241); experiment: as above
[5] = target: β-Catenin (human (endogenous in primary trophoblasts)) (UniProt P35222); experiment: as above
[6] = target: T1, δ-Catenin (human (endogenous in primary trophoblasts)) (UniProt O60716); experiment: as above
T1 sequence: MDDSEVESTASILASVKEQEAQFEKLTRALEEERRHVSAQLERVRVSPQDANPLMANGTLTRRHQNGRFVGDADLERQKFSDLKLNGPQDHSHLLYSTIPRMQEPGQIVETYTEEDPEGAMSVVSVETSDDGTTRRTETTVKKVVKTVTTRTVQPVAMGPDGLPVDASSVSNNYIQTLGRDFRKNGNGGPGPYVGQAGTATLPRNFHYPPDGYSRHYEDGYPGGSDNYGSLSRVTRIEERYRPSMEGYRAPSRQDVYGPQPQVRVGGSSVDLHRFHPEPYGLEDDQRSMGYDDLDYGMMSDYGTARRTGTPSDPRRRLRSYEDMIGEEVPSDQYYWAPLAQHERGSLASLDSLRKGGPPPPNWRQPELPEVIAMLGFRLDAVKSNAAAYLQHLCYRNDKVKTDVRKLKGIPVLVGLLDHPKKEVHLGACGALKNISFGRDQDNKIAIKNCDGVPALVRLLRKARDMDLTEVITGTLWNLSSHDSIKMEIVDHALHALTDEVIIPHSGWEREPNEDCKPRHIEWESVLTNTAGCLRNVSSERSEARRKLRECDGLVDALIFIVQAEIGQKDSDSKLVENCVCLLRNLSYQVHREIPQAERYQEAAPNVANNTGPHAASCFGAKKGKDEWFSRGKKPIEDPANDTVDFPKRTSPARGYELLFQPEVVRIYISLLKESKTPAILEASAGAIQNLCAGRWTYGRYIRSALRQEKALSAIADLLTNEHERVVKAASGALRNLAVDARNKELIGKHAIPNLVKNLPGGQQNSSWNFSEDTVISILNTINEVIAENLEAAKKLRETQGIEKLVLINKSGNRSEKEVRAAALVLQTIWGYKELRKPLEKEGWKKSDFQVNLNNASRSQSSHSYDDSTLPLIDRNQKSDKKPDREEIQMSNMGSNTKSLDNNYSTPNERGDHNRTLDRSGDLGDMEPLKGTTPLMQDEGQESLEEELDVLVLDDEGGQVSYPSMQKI

AnxA5-FITC = AnxA5-FITC (UniProt P08758); experiment: co-IP; primary trophoblasts incubated with AnxA5-FITC; cell lysates precipitated with an antibody against FITC coupled to protein G Dynabeads; immunoblot; only the target purified
[7] = target: Annexin A5 (human (endogenous in primary trophoblasts)) (UniProt P08758); experiment: co-IP; lysates of cytotrophoblasts cultured 24 h (200 μg protein); antibodies to AnxA5, E-Cadherin, β-Catenin or α-Catenin covalently coupled (BS3) to protein G Dynabeads; immunoblot; control rabbit or mouse IgG
[8] = target: Annexin A5 (human (endogenous in primary trophoblasts)) (UniProt P08758); experiment: co-IP; lysates of the cytotrophoblast plasma membrane fraction; antibody to AnxA5 coupled to protein G Dynabeads; immunoblot; control IgG

Measured: binding

Annexin A5 (from UniProt P08758 1-320)
binds: [1] | [2]

AnxA5-CF770 (from UniProt P08758 1-320)
binds: [3] | [4] | [5] | [6]

β-Catenin (from UniProt P35222 1-781)
binds: AnxA5-FITC | [7] | [8]
